# Results of single-concentration screens

Sequences of proteins named here, by UniProt entry; tags and fusion partners are left off. Residues count along the entry.
UniProt Q4DA54, 1-478: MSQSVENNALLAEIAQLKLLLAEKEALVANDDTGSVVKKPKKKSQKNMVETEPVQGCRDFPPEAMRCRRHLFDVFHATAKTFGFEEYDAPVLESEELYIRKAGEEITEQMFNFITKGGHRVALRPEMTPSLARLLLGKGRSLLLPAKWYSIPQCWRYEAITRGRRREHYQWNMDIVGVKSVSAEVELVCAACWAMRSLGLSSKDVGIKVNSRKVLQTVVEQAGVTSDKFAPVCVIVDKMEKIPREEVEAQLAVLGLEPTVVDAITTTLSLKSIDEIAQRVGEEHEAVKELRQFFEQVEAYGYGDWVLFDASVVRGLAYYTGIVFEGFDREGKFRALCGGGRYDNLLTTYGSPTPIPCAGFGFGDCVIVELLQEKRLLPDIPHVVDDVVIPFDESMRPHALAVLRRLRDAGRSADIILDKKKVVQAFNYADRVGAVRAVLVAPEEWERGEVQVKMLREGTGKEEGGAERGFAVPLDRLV

Source: ChEMBL document CHEMBL3988442, “University of Dundee, Small-Polar-MMV Screening Library” (2021).

Values are the deposited “Percent Effect”, in %.
How 0% and 100% were set is not recorded. Most values in the screen are low, and negative values occur.
Compounds were drawn at random from those tested, without regard to their results.

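Histidine-tRNA ligase, Trypanosoma cruzi CL Brener (UniProt Q4DA54). Enzyme assay of histidyl-tRNA synthetase; the read-out is not stated. Compounds at 30 µM. Higher reads as stronger inhibition (inferred: compounds with an IC50 in retests scored well above the rest). About 69,000 compounds were tested under these conditions; 0.045% (about 31) showed 50% or more at least once.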

- CC(O)CNCc1c(C(C)C)nn(C)c1N1CCOCC1 (stereo unspecified) | 1.466%
- Cn1nc(COc2cccnc2)c2c1CCN(c1cnccn1)C2 | 6.077%
- NS(=O)(=O)CCNC(=O)c1nnn(-c2ccc(F)cc2)c1C1CC1 | -0.5348%
- CCNC(=O)N1CCN(Cc2nc3ccccc3[nH]2)[C@@H]2CS(=O)(=O)C[C@@H]21 | 3.39%
- Cc1ncsc1C(=O)NCCc1cccs1 | 3.207%
- N#Cc1ccc(CNc2ncc(C#N)cc2Cl)cc1 | 1.053%
- COCCN1CCC2(CC1)COc1ccccc1S(=O)(=O)N(C)C2 | 1.869%
- Cn1cnnc1C1CCCN(C(=O)NCc2ccccn2)C1 (stereo unspecified) | 4%
- CCC(CNC(=O)C1CC1)(OC)c1ccccc1 (stereo unspecified) | 2.062%
- COc1cccc(-c2nc(CNCCCn3cccn3)cs2)c1 | -1.667%
- O=C(c1cccnc1N1CCCCC1)N1CCCC(n2cccn2)C1 (stereo unspecified) | 5.202%
- CCC(=O)N1CCC(NC2CCSCC2)C1 (stereo unspecified) | -2.597%
- CNc1ccc(CC2CCCN(C(=O)c3c(C)noc3C)C2)nn1 (stereo unspecified) | 10.99%
- CCCc1cc(C(=O)N(C)Cc2cccc3ncccc23)n(C)n1 | 1.674%
- Cc1ccc(CNC(=O)Nc2nncs2)n1C | 5.319%
- CN1CCCC(c2cncc(-c3cccc(C(F)(F)F)c3)n2)C1 (stereo unspecified) | 6.202%
- CC(C)c1nc(C2CCCN2CCc2ccccn2)no1 (stereo unspecified) | 2.488%
- CCS(=O)(=O)N1CCc2c(cccc2NC(=O)NCCO)C1 | 8.333%
- Cc1nn(CCC#N)c(C)c1[C@@H]1C=C[C@@H](NCc2ccc(F)cc2)C1 | 4.95%
- Cn1c(C(=O)N(CC(N)=O)C2CCCC2)cc(Cl)c1Cl | 0.5525%
- Cc1cccc(CN2CCOCC3(CCN(C4CCOCC4)C3)C2)n1 (stereo unspecified) | 10.74%
- CN(Cc1ccc(-n2cncn2)cc1)Cc1ncc[nH]1 | 4.712%
- CC(C)c1nccc([C@H]2C[C@@H]3CCN(Cc4ccco4)C[C@H]3O2)n1 | 8.197%
- CC(=O)N1CC2C[C@]2(NC(=O)c2ccco2)C1 (stereo partly specified) | 6.796%
- CC(C)c1cnc(CN2CCCC(c3cc(C(N)=O)[nH]n3)C2)o1 (stereo unspecified) | 5.814%
- N[C@H]1CN(CCOc2ccc(F)cc2)C[C@@H]1C1CC1 | 5.759%
- O=C(Cc1cccs1)N1C[C@H]2CN(CC3CCCO3)CC[C@H]2C1 (stereo partly specified) | 3.509%
- Cc1nc(C2CCCC2)sc1C(N)=O | 0.6494%
- Cc1cnn(C2CN(CC(=O)NCCc3ccsc3)C2)c1 | 4.046%
- Cc1ccc(CN2C[C@@H]3COC[C@@H](NS(C)(=O)=O)[C@@H]3C2)o1 | 0.5405%
- CCOCCCNC(=O)Cc1cccc(F)c1 | 5.102%
- CCS(=O)(=O)N1CCC2(CCN(Cc3cccc(OC)c3)CC2)CC1 | 3.883%